No constants are given. Whether binding was seen depends on the method and setting. A result given as binding can be weak or reduced; the word gives no strength. Tags and fused reporters may be left off the sequences shown.
Biological target: Purified recombinant GST-tagged TMIGD1 protein (TMIGD1-GST) (UniProt Q6UXZ0)
Test: pull-down; TMIGD1-GST on Glutathione Agarose (4°C, 2 h), then incubated with BANF1-Flag at 4°C for 2 h; washed five times; eluate analysed by western blot; both purified

By UniProt entry, the sequences of proteins in these tests, tags left out. Where a name states a change or a piece, a line headed by the entry shows the natural chain unless it says otherwise.
UniProt Q6UXZ0: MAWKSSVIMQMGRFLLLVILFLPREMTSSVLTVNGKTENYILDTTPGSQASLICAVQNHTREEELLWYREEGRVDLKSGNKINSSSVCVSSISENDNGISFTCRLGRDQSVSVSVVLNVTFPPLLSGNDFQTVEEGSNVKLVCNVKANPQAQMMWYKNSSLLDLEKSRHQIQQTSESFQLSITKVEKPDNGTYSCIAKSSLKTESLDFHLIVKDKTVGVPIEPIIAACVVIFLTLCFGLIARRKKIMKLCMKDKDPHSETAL

B1: FLAG-tagged BANF1 protein (BANF1-Flag) (protein, UniProt O75531 1-89)
chain: MTTSQKHRDFVAEPMGEKPVGSLAGIGEVLGKKLEERGFDKAYVVLGQFLVLKKDEDLFREWLKDTCGANAKQSRDCFGCLREWCDAFL
  binding: binds

From PMC10403950
